These are yes or no findings as the source states them, for the method shown. In cells and extracts the contact can be indirect. Binding calls can cover weak binding; strength is not graded here.

Chains of the proteins cited; added tags and fusions are not shown. Lines headed by an entry give the natural chain unless they say otherwise; changes in a name come on top.
UniProt Q15796: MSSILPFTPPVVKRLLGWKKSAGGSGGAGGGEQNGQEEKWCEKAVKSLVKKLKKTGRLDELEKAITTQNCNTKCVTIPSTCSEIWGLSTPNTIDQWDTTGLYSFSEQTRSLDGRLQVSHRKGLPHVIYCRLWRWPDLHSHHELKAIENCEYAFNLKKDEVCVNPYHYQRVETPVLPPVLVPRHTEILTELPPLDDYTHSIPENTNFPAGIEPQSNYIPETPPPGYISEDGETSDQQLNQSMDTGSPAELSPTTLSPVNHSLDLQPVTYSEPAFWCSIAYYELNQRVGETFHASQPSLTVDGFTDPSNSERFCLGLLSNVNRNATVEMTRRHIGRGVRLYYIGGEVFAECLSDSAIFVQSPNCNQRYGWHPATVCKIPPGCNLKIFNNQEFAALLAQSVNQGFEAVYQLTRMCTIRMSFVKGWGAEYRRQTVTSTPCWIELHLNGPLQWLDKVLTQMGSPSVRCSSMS
UniProt Q13485: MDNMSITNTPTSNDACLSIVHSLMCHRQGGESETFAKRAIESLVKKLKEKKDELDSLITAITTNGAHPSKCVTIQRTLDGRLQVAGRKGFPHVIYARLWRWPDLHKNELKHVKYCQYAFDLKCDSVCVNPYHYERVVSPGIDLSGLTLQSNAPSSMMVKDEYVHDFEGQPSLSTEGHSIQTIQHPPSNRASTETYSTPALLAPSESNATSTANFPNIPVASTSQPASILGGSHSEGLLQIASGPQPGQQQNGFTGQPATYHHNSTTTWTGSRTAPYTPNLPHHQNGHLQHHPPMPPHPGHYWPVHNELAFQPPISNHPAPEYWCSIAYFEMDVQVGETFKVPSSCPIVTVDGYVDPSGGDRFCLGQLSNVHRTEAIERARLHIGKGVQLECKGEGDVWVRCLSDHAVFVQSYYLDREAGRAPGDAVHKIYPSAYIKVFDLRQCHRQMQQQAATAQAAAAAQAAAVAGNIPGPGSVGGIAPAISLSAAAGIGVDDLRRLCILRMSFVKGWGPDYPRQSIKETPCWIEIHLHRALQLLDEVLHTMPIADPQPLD

The target in this test is GFP-Smad2 with TID domain deletion (UniProt Q15796). Kind of test: co-IP; HEK 293 cells stably expressing the GFP fusion, with or without Activin for 1 hr; lysed in cold RIPA buffer; GFP antibody with Protein-G Sepharose beads, 4 °C overnight; blot with anti-Smad4.

Turning to Smad4 (from UniProt Q13485 1-552), the binding entry is recorded as “binds”.

Source of the values: paper PMC4764856.
